From PubChem BioAssay AID328 (DTP/NCI, 2004)
The list does not hold the whole screen: it gathers tests that were run many times, whatever their T/C, doses with no T/C, and many T/C values between a quarter and a half above the control. Further doses and runs are listed elsewhere. T/C is the treated group as % of the vehicle group. Some entries give survivors of the animals treated and no T/C: the source holds a T/C of zero for them, seemingly a mark for toxic or unscored doses. Some doses without a T/C left all or most animals alive at the check, yet need not have been tolerated: the source hardly ever lists a survival T/C far under the control, and the zero likely stands for such cases as well. Survivors were counted at the toxicity check, usually on the fifth day, unless a day is given; later deaths do not show. Schedules are NCI's codes, taken here to give the interval after Q, in days (D) or hours (H), and the number of doses after X. Some doses were run more than once; the results are listed from low to high. Brackets with × count equal records among those shown. Where survival is the endpoint, the PubChem record calls one and a half times the control and up active, and a quarter to a half above the control has no call in these data; cut-offs in other NCI protocols can differ. Some T/C values carry the count of animals alive at the toxicity check (mostly the fifth day); without a count, all were alive then.

System: BDF1 mice, P388 leukemia ip, median survival T/C
Experiment: NCI In Vivo Anticancer Drug Screen. Data for tumor model P388 Leukemia (intraperitoneal) in B6D2F1 (BDF1) mice
Conditions: T/C endpoint: median survival time, higher T/C = longer survival
In short: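 Compound-treated tumour-bearing mice were compared with vehicle-treated controls. Survival was recorded, and the value is the treated-group measurement divided by the control-group measurement (T/C).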

[1] = dose: 200.0 mg/kg/injection, schedule: Q01DX009 (ip), vehicle: Klucel (hydroxypropylcellulose) (HPC)
[2] = dose: 400.0 mg/kg/injection, schedule: Q01DX009 (ip), vehicle: Klucel (hydroxypropylcellulose) (HPC)
[3] = dose: 400.0 mg/kg/injection, schedule: Q04DX002 (ip), vehicle: Klucel (hydroxypropylcellulose) (HPC)

O=C1CN=C(c2ccc[nH]2)c2cc(Cl)ccc2N1
T/C (dose: 200.0 mg/kg/injection, schedule: Q01DX001 (ip), vehicle: Klucel (hydroxypropylcellulose) (HPC), evaluated on day 35): 100 and 107 % of control
survivor count (dose: 200.0 mg/kg/injection, schedule: Q01DX001 (ip), vehicle: Klucel (hydroxypropylcellulose) (HPC)): 0 of 6, 3 of 3, 6 of 6
T/C (dose: 200.0 mg/kg/injection, schedule: Q01DX005 (ip), vehicle: Klucel (hydroxypropylcellulose) (HPC), evaluated on day 30): 90, 91, 92 [4 of 6 alive], 97, 100, 102, 105, 106, 107, 109, 116 [2 of 3 alive], 117 [2 of 3 alive], 120, 123, 125, 126 [5 of 6 alive], 127, 130, 132, 132 [4 of 6 alive], 133, 138, 140 [4 of 6 alive], 147 % of control
T/C (dose: 200.0 mg/kg/injection, schedule: Q01DX005 (ip), vehicle: Klucel (hydroxypropylcellulose) (HPC), evaluated on day 35): 105 % of control
survivor count (dose: 200.0 mg/kg/injection, schedule: Q01DX005 (ip), vehicle: Klucel (hydroxypropylcellulose) (HPC)): 0 of 3, 1 of 3, 3 of 6, 2 of 3, 5 of 6, 3 of 3
T/C [1]: 91, 92, 95, 96, 100 (2×), 102, 104 (3×), 104 [2 of 3 alive], 105, 110, 111 (2×), 118, 119 [4 of 6 alive], 129, 131, 133, 136 [5 of 6 alive], 155, 162 % of control
survivor count [1]: 0 of 3, 1 of 3, 2 of 6, 3 of 6, 2 of 3, 5 of 6, 3 of 3, 6 of 6
T/C (dose: 200.0 mg/kg/injection, schedule: Q04DX002 (ip), vehicle: Klucel (hydroxypropylcellulose) (HPC), evaluated on day 30): 86, 95, 96, 96 [2 of 3 alive], 97, 99, 100, 101, 102, 103 (3×), 106, 107, 107 [2 of 3 alive], 108, 109, 110 (2×), 111, 112 (2×), 113 [5 of 6 alive], 114, 119, 125, 128 (2×), 130, 133, 150 % of control
T/C (dose: 200.0 mg/kg/injection, schedule: Q04DX002 (ip), vehicle: Klucel (hydroxypropylcellulose) (HPC), evaluated on day 35): 106 % of control
survivor count (dose: 200.0 mg/kg/injection, schedule: Q04DX002 (ip), vehicle: Klucel (hydroxypropylcellulose) (HPC)): 3 of 3 and 6 of 6
T/C (dose: 200.0 mg/kg/injection, schedule: Q04DX003 (ip), vehicle: Klucel (hydroxypropylcellulose) (HPC), evaluated on day 30): 91, 91 [5 of 6 alive], 93, 94 (2×), 95 (2×), 96, 98, 98 [2 of 3 alive], 99 [5 of 6 alive], 100 (2×), 103 (3×), 104, 105, 106 (2×), 107, 108, 109 (2×), 113, 115, 118, 122, 130, 134, 144, 148 % of control
T/C (dose: 200.0 mg/kg/injection, schedule: Q04DX003 (ip), vehicle: Klucel (hydroxypropylcellulose) (HPC), evaluated on day 35): 102 and 107 % of control
survivor count (dose: 200.0 mg/kg/injection, schedule: Q04DX003 (ip), vehicle: Klucel (hydroxypropylcellulose) (HPC)): 6 of 6
T/C (dose: 400.0 mg/kg/injection, schedule: Q01DX001 (ip), vehicle: Klucel (hydroxypropylcellulose) (HPC), evaluated on day 30): 95 [5 of 6 alive], 100 (3×), 101, 102 (2×), 104, 106, 107, 109 (3×), 109 [5 of 6 alive], 110, 113 (2×), 115, 116, 118 [4 of 6 alive], 123 % of control (2×)
T/C (dose: 400.0 mg/kg/injection, schedule: Q01DX001 (ip), vehicle: Klucel (hydroxypropylcellulose) (HPC), evaluated on day 35): 110 and 129 % of control
survivor count (dose: 400.0 mg/kg/injection, schedule: Q01DX001 (ip), vehicle: Klucel (hydroxypropylcellulose) (HPC)): 0 of 3, 1 of 3, 3 of 6, 2 of 3, 3 of 3
T/C (dose: 400.0 mg/kg/injection, schedule: Q01DX005 (ip), vehicle: Klucel (hydroxypropylcellulose) (HPC), evaluated on day 30): 90, 97, 101, 108, 113, 130, 142, 148 % of control
T/C (dose: 400.0 mg/kg/injection, schedule: Q01DX005 (ip), vehicle: Klucel (hydroxypropylcellulose) (HPC), evaluated on day 35): 134 % of control
survivor count (dose: 400.0 mg/kg/injection, schedule: Q01DX005 (ip), vehicle: Klucel (hydroxypropylcellulose) (HPC)): 0 of 3, 0 of 6, 1 of 6, 1 of 3, 2 of 6, 3 of 6, 3 of 3
T/C [2]: 93 [4 of 6 alive], 95 [2 of 3 alive], 100 [5 of 6 alive], 104 [2 of 3 alive], 105, 112, 113, 126, 141, 144 % of control
survivor count [2]: 0 of 3, 0 of 6, 1 of 3, 2 of 6, 3 of 6, 2 of 3, 4 of 6, 5 of 6, 3 of 3, 6 of 6
survivor count (dose: 400.0 mg/kg/injection, schedule: Q01DX009 (oral), vehicle: saline with Tween-80): 6 of 6
T/C [3]: 88, 89, 94, 99 [2 of 3 alive], 101, 103, 106 (2×), 108, 109, 111, 112, 115 (3×), 116 [2 of 3 alive], 116 [5 of 6 alive], 122, 123 [2 of 3 alive], 125, 126, 126 [5 of 6 alive] (2×), 128, 130 (2×), 134 (2×), 148 % of control
survivor count [3]: 0 of 3, 1 of 3, 4 of 6
T/C (dose: 400.0 mg/kg/injection, schedule: Q04DX003 (ip), vehicle: Klucel (hydroxypropylcellulose) (HPC), evaluated on day 30): 90 [2 of 3 alive], 92, 93, 98, 99, 100, 101 (2×), 107, 108, 109, 109 [5 of 6 alive], 112, 113, 115, 116, 116 [5 of 6 alive], 118, 120, 121, 123, 130, 137, 139 % of control
T/C (dose: 400.0 mg/kg/injection, schedule: Q04DX003 (ip), vehicle: Klucel (hydroxypropylcellulose) (HPC), evaluated on day 35): 91 % of control
survivor count (dose: 400.0 mg/kg/injection, schedule: Q04DX003 (ip), vehicle: Klucel (hydroxypropylcellulose) (HPC)): 0 of 3, 1 of 6, 1 of 3, 2 of 3 (2×), 3 of 3, 6 of 6
survivor count (dose: 800.0 mg/kg/injection, schedule: Q01DX009 (oral), vehicle: saline with Tween-80): 2 of 6
